Laboratory results from patent US11357819B2, “Cytocidal agent” (FUJITA ACADEMY, priority 2017, dated 2022).
Part of at least one peptide drawing is inferred or uncertain, most often the ends. Where a SMILES comes first, the peptide text is derived from it. [ ]: non-standard residue; d: D form.

Tested on: A431-CNGB3-myc cells in the peritoneal cavity
Experiment: Endometriosis model (cancer-bearing) mouse, tail vein peptide, alive rate and spread of cancer cells
Format: in vivo
Conditions: Example 7; 10 or 50 μg/body once a day for six days via tail vein; 24 days after transplanting cells

CC[C@H](C)[C@H](N)C(=O)N[C@@H](Cc1ccccc1)C(=O)N[C@@H](CC(C)C)C(=O)N[C@@H](CC(C)C)C(=O)N[C@@H](Cc1c[nH]c2ccccc12)C(=O)N[C@@H](CCC(N)=O)C(=O)N[C@@H](CCCNC(=N)N)C(=O)N[C@@H](CCCNC(=N)N)C(=O)N[C@@H](CCCNC(=N)N)C(=O)N[C@H](CCCCN)C(=O)N[C@H](CC(C)C)C(=O)N[C@H](C)C(=O)N[C@H](CCCCN)C(=O)N[C@H](CC(C)C)C(=O)N[C@H](C)C(=O)N[C@H](CCCCN)C(=O)N[C@H](CCCCN)C(=O)N[C@H](CC(C)C)C(=O)N[C@H](C)C(=O)N[C@H](CCCCN)C(=O)N[C@H](CC(C)C)C(=O)N[C@H](C)C(=O)N[C@H](CCCCN)C(=O)N[C@H](Cc1c[nH]cn1)C(=O)N[C@H](CC(C)C)C(=O)N[C@H](C)C(=O)N[C@H](Cc1c[nH]cn1)C(=O)N[C@H](CC(C)C)C(=O)O [IF7 (RR)−(K+H) peptide, IFLLWQR-RR-KLAKLAK-KLAKLAK-HLAHL] (H-IFLLWQRRR[dK][dL][dA][dK][dL][dA][dK][dK][dL][dA][dK][dL][dA][dK][dH][dL][dA][dH][dL]-OH)
alive rate: 100%
